Assay [1] concerns the target T1, Ubp3-FTpA (S. cerevisiae) (UniProt Q01477).
T1 sequence: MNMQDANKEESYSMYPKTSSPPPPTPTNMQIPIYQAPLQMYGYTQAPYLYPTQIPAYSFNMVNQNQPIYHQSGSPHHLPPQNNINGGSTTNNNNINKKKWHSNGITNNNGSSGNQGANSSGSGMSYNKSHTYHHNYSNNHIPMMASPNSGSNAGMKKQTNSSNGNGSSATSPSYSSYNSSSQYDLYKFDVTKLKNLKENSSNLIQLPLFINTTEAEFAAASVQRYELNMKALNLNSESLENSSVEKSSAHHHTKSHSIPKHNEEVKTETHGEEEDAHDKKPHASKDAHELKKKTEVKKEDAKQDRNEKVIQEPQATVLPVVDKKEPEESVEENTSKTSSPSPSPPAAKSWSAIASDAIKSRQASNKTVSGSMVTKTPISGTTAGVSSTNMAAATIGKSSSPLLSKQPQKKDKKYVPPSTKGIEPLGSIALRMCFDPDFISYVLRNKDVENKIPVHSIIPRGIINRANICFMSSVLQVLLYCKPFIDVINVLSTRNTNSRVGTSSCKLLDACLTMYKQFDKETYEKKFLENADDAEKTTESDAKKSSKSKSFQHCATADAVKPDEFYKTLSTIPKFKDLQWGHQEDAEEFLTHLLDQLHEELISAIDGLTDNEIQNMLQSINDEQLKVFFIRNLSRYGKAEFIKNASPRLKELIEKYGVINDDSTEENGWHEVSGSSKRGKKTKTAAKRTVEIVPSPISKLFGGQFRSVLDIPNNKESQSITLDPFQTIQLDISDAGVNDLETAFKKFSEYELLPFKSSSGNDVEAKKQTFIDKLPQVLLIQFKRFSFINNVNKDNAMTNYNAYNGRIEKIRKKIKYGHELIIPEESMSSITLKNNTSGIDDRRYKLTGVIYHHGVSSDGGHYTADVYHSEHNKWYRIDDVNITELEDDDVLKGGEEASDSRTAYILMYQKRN
Put plainly: affinity purification with mass spectrometry; FTpA-tagged bait from yeast lysate on rabbit IgG Dynabeads, seven washes, S7 nuclease treatment, TEV elution ("TEV" sample); label-free LC-MS/MS, Otu2 against Ubp3 purification.

For assay [2], the target named is T2, Otu2-FTpA (S. cerevisiae) (UniProt P38747).
T2 sequence: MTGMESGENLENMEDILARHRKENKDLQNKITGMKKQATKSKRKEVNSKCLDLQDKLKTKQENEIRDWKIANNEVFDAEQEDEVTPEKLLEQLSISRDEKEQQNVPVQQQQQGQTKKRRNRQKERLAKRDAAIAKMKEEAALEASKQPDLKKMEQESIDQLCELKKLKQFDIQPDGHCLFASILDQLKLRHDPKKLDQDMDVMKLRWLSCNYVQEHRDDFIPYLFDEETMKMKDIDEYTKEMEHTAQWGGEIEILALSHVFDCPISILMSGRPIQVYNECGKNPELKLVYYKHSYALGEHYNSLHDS
The assay is described as above.

In publication PMC10175282 one finds binding data, which are given here for 2 molecules.

Results are given in words; binding and its absence hold for the method and conditions named. Binding seen in cells or lysates may run through a third protein. These calls come from enrichment with a bait or labelling near it, and not all partners need be listed.

B1: Bre5 (protein, UniProt P53741 1-515)
chain: MGVTVQDICFAFLQNYYERMRTDPSKLAYFYASTAELTHTNYQSKSTNEKDDVLPTVKVTGRENINKFFSRNDAKVRSLKLKLDTIDFQYTGHLHKSILIMATGEMFWTGTPVYKFCQTFILLPSSNGSTFDITNDIIRFISNSFKPYVLTDASLSQSNEENSVSAVEEDKIRHESGVEKEKEKEKSPEISKPKAKKETVKDTTAPTESSTQEKPIVDHSQPRAIPVTKESKIHTETVPSSTKGNHKQDEVSTEELGNVTKLNEKSHKAEKKAAPIKTKEGSVEAINAVNNSSLPNGKEVSDEKPVPGGVKEAETEIKPIEPQVSDAKESGNNASTPSSSPEPVANPPKMTWASKLMNENSDRISKNNTTVEYIRPETLPKKPTERKFEMGNRRDNASANSKNKKKPVFSTVNKDGFYPIYIRGTNGLREEKLRSALEKEFGKVMRITAADNFAVVDFETQKSQIDALEKKKKSIDGIEVCLERKTVKKPTSNNPPGIFTNGTRSHRKQPLKRKD
Turning to B1, the binding entry in assay [1] is “binds”.

B2: Tma64 (protein, UniProt Q04600 1-565)
chain: MFKKEPHIKALSNLKNSERKKLLQTFQKQTNNEEYSFRTSTIKQTNFNGQKSVGTVYTDENNTPILFKEKHKEQLFPTVYSCWEYPALLPIVLTHGFVIEEHLFNGANLMISGSIPPFDPRCKIGTLCGIASKQAPETVLAIGIVELDLPSFDKVIGETGVAVKIIHHFNDGLSKVFKMKLEPPFVLSTQSKDNNISSKQIESSEQIKAVEKEQEDVKEASVDVEEIAEVLDHFTVSDVDYFITRALYYTLTQDKGLELPISASNFISNHIMRNLPPIDHNEVNVKKTSWKKSAKFLKHFEKEGFLKLKGKGDDLTIVGKNTDKDELKNFVPYKLGCSKSATESRESTTSKEKTSGMMYSLTLYKPFNLAKDLLKEVNLASHTYYTSQDIRSAVSQYISVKNLADTKDKGKVIMDDLLFDMVNKKKKVLNASRIIARGEILHPLLTNNFTEFYQIFKSDDTLLFKAPMKGSLPHIKIITEMKIGRKVITRVSNFEVFQVDPESLAADLRKICSGSTTISESQTFKCAEVQVQGPHGQSIIDHLNKLGIPSKWIDFENKLKKKKRK
For the molecule B2, the binding entry in assay [2] is listed as “binds”.
